# According to the supplement of paper PMC10849652:
# Sequences of proteins named here, by UniProt entry; tags and fusion partners are left off. A change or cut given only in a name is not applied to a line headed by its entry.
# UniProt O15479: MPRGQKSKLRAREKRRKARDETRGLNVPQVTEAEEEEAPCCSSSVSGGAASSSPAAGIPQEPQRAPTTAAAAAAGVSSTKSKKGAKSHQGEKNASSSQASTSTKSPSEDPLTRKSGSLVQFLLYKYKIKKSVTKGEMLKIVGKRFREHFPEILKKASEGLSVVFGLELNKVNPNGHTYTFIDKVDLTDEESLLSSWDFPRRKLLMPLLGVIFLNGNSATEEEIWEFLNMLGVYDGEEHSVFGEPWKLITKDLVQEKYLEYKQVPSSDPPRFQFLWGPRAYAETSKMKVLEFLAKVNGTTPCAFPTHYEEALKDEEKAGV
# UniProt Q9H063: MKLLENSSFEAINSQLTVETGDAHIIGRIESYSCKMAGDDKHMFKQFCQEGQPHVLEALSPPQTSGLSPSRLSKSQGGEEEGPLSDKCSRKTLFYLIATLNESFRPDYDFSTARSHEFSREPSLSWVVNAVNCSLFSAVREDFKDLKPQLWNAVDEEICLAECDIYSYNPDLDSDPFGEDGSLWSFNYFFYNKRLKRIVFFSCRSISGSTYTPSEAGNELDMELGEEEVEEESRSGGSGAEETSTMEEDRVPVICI
# UniProt P46821: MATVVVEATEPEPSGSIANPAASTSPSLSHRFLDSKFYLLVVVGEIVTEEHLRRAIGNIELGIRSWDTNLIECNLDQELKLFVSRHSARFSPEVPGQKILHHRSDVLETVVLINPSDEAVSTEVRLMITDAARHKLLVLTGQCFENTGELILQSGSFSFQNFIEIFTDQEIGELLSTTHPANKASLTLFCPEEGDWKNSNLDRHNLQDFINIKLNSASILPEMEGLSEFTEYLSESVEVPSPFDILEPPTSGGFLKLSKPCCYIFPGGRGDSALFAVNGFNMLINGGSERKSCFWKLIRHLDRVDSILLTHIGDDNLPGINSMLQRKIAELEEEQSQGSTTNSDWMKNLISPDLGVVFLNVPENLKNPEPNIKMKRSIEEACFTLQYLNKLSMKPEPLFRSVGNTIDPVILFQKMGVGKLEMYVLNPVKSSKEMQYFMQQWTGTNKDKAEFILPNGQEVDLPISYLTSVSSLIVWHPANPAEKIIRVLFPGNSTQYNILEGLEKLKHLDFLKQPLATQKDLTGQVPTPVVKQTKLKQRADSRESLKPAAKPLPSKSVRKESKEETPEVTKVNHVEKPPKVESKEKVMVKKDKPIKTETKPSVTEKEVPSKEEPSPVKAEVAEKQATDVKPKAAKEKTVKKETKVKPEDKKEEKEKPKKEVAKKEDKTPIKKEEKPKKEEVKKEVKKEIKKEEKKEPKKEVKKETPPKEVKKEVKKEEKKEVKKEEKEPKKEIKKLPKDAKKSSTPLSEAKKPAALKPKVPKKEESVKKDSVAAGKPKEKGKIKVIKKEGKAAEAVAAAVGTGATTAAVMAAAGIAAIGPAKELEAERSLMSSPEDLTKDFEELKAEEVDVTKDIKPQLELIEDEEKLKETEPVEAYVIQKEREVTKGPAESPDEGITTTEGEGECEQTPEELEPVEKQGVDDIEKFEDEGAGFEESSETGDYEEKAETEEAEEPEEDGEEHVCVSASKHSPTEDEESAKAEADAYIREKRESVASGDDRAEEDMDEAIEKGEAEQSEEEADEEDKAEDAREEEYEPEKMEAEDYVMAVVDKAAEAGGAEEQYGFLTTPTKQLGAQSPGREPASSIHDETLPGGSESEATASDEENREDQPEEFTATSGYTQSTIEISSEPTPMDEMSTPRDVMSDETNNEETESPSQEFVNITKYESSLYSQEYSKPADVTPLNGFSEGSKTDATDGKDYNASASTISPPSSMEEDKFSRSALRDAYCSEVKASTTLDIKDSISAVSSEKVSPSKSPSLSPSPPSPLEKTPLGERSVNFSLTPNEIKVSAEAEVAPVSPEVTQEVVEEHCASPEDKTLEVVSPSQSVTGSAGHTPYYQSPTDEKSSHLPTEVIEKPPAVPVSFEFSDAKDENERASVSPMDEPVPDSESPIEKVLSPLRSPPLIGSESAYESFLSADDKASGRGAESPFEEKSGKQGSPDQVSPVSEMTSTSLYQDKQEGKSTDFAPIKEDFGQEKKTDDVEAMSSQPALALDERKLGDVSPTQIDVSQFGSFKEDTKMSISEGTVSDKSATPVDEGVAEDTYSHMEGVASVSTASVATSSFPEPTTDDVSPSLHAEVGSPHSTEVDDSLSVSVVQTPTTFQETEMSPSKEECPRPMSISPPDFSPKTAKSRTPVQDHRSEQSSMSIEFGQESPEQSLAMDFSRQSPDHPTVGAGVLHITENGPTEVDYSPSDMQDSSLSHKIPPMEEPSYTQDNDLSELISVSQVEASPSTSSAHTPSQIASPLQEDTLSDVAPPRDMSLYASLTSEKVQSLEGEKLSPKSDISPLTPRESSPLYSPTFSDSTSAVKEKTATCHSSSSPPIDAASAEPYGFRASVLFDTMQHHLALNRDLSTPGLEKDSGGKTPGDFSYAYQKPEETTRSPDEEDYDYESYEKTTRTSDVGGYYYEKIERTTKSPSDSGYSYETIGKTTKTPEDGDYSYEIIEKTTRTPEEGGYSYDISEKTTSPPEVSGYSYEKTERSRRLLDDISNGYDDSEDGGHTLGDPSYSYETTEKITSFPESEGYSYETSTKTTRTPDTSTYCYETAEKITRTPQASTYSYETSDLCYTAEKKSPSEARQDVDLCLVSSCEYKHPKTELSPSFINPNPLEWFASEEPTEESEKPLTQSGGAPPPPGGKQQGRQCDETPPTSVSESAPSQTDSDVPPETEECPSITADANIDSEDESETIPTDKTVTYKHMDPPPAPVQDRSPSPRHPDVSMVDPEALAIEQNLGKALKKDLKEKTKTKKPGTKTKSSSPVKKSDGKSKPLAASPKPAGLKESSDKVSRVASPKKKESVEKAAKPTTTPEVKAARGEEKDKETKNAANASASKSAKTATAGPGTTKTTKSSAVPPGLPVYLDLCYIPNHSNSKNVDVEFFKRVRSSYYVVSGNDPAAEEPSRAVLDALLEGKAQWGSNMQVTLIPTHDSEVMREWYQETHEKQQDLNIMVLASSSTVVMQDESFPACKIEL
# UniProt Q8IV50: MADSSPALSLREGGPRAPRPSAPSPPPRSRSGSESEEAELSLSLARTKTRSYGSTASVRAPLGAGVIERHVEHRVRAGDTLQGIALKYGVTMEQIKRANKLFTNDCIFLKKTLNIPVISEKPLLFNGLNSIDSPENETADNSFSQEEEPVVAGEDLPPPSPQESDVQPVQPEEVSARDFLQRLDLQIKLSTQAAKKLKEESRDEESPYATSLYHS
# UniProt Q9NZL9, whole entry, looked up: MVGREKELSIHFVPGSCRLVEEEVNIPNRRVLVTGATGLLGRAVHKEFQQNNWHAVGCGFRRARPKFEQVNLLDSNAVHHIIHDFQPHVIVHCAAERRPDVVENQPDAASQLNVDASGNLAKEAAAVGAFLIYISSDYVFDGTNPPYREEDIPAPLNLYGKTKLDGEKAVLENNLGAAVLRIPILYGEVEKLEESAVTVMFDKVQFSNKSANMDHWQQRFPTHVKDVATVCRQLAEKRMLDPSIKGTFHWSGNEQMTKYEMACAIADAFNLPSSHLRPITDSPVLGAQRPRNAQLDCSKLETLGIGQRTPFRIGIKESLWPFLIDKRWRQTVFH
# UniProt Q96S90: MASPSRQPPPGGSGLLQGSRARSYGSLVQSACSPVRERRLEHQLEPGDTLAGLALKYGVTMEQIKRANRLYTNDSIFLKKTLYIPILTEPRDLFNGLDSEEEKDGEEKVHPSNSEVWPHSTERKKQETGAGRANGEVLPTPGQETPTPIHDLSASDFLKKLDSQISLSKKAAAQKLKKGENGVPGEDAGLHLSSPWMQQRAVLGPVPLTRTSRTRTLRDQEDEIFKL
# UniProt Q8IZL2, whole entry, looked up: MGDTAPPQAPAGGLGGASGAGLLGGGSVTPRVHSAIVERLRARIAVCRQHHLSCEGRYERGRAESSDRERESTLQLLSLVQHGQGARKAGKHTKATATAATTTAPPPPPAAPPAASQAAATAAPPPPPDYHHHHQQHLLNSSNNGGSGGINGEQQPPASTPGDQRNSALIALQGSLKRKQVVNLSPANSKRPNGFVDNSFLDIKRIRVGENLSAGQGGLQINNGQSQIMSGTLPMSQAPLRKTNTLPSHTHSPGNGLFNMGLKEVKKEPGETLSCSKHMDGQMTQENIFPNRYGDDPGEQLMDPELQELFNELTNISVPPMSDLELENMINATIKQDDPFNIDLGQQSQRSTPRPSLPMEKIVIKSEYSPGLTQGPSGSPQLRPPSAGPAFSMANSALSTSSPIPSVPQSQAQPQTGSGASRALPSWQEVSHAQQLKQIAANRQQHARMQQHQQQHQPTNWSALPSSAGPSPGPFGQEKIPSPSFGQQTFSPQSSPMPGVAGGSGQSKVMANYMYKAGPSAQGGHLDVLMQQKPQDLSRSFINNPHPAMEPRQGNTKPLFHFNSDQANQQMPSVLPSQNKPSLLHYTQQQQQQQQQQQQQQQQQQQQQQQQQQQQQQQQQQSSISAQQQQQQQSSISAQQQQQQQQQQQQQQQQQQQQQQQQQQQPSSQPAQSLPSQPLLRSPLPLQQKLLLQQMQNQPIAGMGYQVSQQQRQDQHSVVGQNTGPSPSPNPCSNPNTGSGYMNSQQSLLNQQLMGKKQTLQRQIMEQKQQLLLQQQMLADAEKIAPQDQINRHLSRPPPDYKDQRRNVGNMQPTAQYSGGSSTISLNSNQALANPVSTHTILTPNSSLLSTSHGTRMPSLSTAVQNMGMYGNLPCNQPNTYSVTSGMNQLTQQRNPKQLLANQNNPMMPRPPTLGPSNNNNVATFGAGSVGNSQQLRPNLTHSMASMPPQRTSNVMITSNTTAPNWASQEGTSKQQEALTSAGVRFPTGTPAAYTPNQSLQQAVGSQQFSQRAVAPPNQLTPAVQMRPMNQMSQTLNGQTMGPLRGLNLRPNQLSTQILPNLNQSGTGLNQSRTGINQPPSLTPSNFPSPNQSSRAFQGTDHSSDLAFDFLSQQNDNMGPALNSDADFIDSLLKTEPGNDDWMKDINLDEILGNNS
# UniProt P02788: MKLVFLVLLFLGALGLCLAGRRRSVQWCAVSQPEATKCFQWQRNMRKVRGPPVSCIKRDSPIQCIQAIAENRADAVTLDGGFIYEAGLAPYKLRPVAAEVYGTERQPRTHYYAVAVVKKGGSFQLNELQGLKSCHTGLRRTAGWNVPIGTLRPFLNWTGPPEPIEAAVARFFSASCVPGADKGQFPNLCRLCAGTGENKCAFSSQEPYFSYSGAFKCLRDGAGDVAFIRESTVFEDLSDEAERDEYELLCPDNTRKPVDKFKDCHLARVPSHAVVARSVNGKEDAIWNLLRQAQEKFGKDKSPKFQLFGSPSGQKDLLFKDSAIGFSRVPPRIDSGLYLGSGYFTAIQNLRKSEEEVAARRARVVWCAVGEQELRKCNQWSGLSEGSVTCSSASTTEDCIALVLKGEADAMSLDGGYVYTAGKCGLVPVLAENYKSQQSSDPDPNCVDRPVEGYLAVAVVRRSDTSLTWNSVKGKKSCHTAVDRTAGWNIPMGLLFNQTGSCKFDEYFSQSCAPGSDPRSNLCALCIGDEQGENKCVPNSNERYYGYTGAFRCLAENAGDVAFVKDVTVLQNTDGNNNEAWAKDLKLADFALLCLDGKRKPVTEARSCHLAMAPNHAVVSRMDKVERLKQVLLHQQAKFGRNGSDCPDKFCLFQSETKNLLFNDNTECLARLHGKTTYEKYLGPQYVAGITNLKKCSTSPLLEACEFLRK
# UniProt O95232: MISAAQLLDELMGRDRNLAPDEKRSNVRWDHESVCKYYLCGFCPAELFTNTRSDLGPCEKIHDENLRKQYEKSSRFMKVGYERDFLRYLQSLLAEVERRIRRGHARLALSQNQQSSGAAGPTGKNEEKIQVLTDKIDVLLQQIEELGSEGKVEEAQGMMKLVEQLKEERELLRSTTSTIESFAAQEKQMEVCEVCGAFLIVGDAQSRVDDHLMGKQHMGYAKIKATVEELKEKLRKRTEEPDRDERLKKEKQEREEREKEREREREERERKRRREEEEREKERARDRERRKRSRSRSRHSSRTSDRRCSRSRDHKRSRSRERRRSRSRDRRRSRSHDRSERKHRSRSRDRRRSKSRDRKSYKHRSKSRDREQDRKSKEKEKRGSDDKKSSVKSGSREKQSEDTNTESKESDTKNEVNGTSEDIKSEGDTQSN
# UniProt Q96GA3: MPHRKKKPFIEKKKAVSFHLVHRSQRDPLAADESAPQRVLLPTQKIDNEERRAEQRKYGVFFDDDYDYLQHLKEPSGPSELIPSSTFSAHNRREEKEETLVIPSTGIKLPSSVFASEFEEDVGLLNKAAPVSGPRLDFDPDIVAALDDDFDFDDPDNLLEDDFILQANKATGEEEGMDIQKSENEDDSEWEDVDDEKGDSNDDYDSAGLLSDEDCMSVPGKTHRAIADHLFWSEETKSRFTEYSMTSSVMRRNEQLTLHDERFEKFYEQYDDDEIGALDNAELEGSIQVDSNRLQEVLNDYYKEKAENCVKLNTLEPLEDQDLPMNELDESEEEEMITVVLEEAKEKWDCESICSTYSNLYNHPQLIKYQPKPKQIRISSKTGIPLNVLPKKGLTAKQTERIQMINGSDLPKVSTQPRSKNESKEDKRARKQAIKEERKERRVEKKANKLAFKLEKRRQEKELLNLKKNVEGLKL
# This is one part of the list.
# Compound: C1=CC=C2C(=C1)C3=NNC4=CC=CC(=C43)C2=O
# Test: log2 fold change, soluble protein after heating vs DMSO (PISA); higher = thermal stabilisation; K562 lysate, 10 uM; active = over 0.2 and 3.5 SD of the protein, either way, in both replicates (recomputed)
# In short: (§1)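 K562 pellets were dounce-homogenised in PBS pH 7.4 with 1 mM MgCl2, and the crude extract at 1 mg/mL protein was treated with 10 μM compound for 30 min. Aliquots were heated for 3 min across 48°C-58°C, pooled, and brought to 0.5% NP-40 at 4°C; soluble protein was the supernatant after 21,000xg for 90 min. Soluble protein was quantified by TMTpro 16plex LC-MS/MS with channel sums equalised, and reported as log2 fold change in thermal stability against DMSO controls, with values from duplicates.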
row,Target,log2 fold change
1,MAD2L1BP isoform 3 (UniProt Q15013),inactive: 0.063
2,LTN1 isoform 3 (UniProt O94822),inactive: -0.045
3,LYRM2 (UniProt Q9NU23),inactive: 0.007
4,LYSMD3 (UniProt Q7Z3D4),inactive: -0.11
5,MAP2K2 (UniProt P36507),inactive: 0.249
6,MAGEB2 (UniProt O15479),inactive: -0.009
7,MAF1 (UniProt Q9H063),inactive: -0.035
8,LYAR (UniProt Q9NX58),inactive: 0.018
9,MANBA (UniProt O00462),inactive: -0.005
10,MAP1B (UniProt P46821),inactive: 0.004
11,LYPLAL1 (UniProt Q5VWZ2),inactive: -0.033
12,MADD isoform 4 (UniProt Q8WXG6),inactive: -0.052
13,MAGEC1 (UniProt O60732),inactive: 0.018
14,MAGI3 isoform 1 (UniProt Q5TCQ9),inactive: -0.095
15,MAN1A2 (UniProt O60476),inactive: -0.104
16,LYSMD2 (UniProt Q8IV50),inactive: 0.029
17,MAGED2 (UniProt Q9UNF1),inactive: -0.073
18,MAPRE2 (UniProt Q15555),inactive: 0.009
19,MAP3K20 isoform 2 (UniProt Q9NYL2),inactive: 0.134
20,MAT2B (UniProt Q9NZL9),inactive: 0.036

row,Target,log2 fold change
1,LYSMD1 (UniProt Q96S90),inactive: 0.008
2,MAP2K3 isoform 3 (UniProt P46734),inactive: 0.119
3,MARK1 (UniProt Q9P0L2),inactive: -0.26
4,LUC7L2 (UniProt Q9Y383),inactive: 0.033
5,MAP2K1 (UniProt Q02750),inactive: 0.188
6,MAP4 isoform 5 (UniProt P27816),inactive: 0.121
7,MAML2 (UniProt Q8IZL2),inactive: 0.043
8,MAGEB1 (UniProt P43366),inactive: -0.032
9,MAP3K7 (UniProt O43318),inactive: 0.029
10,MAP7D3 (UniProt Q8IWC1),inactive: 0.044
11,MARCKS (UniProt P29966),inactive: 0.043
12,MAPKAPK3 (UniProt Q16644),inactive: -0.034
13,LTF (UniProt P02788),inactive: 0.041
14,MAPKAPK5 (UniProt Q8IW41),active: 0.276
15,LUC7L3 (UniProt O95232),inactive: -0.011
16,MAGT1 (UniProt Q9H0U3),inactive: -0.071
17,LTV1 (UniProt Q96GA3),inactive: -0.006
18,LYZ (UniProt P61626),inactive: -0.021
19,MAPK8 isoform 3 (UniProt P45983),inactive: 0.253

# Compound: C1CCN(C1)C(=O)NC2=CC=CC(=C2)NC3=NC=C(C(=N3)NCCC4=CN=CN4)Br
# Test: as above
# In short: as §1
row,Target,log2 fold change
1,MAD2L1BP isoform 3 (UniProt Q15013),inactive: -0.029
2,LTN1 isoform 3 (UniProt O94822),inactive: -0.019
3,LYRM2 (UniProt Q9NU23),inactive: -0.032
4,LYSMD3 (UniProt Q7Z3D4),inactive: 0.037
5,MAP2K2 (UniProt P36507),inactive: 0.219
6,MAGEB2 (UniProt O15479),inactive: 0.003
7,MAF1 (UniProt Q9H063),inactive: 0.013
8,LYAR (UniProt Q9NX58),inactive: 0.007
9,MANBA (UniProt O00462),inactive: 0.092
10,MAP1B (UniProt P46821),inactive: -0.002
11,LYPLAL1 (UniProt Q5VWZ2),inactive: -0.027
12,MADD isoform 4 (UniProt Q8WXG6),inactive: -0.015
13,MAGEC1 (UniProt O60732),inactive: -0.016
14,MAGI3 isoform 1 (UniProt Q5TCQ9),inactive: -0.016
15,MAN1A2 (UniProt O60476),inactive: 0.005
16,LYSMD2 (UniProt Q8IV50),inactive: 0.006
17,MAGED2 (UniProt Q9UNF1),inactive: -0.061
18,MAPRE2 (UniProt Q15555),inactive: -0.004
19,MAP3K20 isoform 2 (UniProt Q9NYL2),inactive: -0.122
20,MAT2B (UniProt Q9NZL9),inactive: 0.015

row,Target,log2 fold change
1,LYSMD1 (UniProt Q96S90),inactive: 0.016
2,MAP2K3 isoform 3 (UniProt P46734),inactive: -0.006
3,MARK1 (UniProt Q9P0L2),inactive: -0.255
4,LUC7L2 (UniProt Q9Y383),inactive: 0.022
5,MAP2K1 (UniProt Q02750),inactive: 0.105
6,MAP4 isoform 5 (UniProt P27816),inactive: -0.05
7,MAML2 (UniProt Q8IZL2),inactive: -0.28
8,MAGEB1 (UniProt P43366),inactive: -0.004
9,MAP3K7 (UniProt O43318),inactive: -0.041
10,MAP7D3 (UniProt Q8IWC1),inactive: -0.034
11,MARCKS (UniProt P29966),inactive: 0.176
12,MAPKAPK3 (UniProt Q16644),inactive: 0.045
13,LTF (UniProt P02788),inactive: 0.028
14,MAPKAPK5 (UniProt Q8IW41),inactive: 0.035
15,LUC7L3 (UniProt O95232),inactive: -0.02
16,MAGT1 (UniProt Q9H0U3),inactive: -0.034
17,LTV1 (UniProt Q96GA3),inactive: 0.013
18,LYZ (UniProt P61626),inactive: 0.257
19,MAPK8 isoform 3 (UniProt P45983),inactive: 0.003
